Assay [1] concerns the target BACE1-HA (β-site amyloid precursor protein-cleaving enzyme 1 with hemagglutinin tag) (UniProt P56817). Briefly: co-IP; mouse cortical neurons cotransfected with BACE1-HA and mock-GFP or SNX4-GFP; lysate precipitated with anti-HA antibody, protein G sepharose; blots for HA, GFP and MHC1.
For assay [2] the target is unchanged. Nature of the assay: co-IP; HEK293 cells cotransfected with BACE1-HA and mock-GFP or SNX4-GFP; lysate precipitated with anti-HA antibody, protein G sepharose; blots for HA, GFP and MHC1.
Assay [3] deals with endogenous β-site amyloid precursor protein-cleaving enzyme 1 (BACE1) of mouse brain (mouse (endogenous in brain tissue)) (UniProt P56818). Briefly: co-IP; mouse brain lysate precipitated with anti-BACE1 antibody; blots for BACE1 and SNX4; endogenous proteins.

Amino acid sequences for entries named in this document (tags omitted). Residues count along the entry.
UniProt P56817, residues 46-501: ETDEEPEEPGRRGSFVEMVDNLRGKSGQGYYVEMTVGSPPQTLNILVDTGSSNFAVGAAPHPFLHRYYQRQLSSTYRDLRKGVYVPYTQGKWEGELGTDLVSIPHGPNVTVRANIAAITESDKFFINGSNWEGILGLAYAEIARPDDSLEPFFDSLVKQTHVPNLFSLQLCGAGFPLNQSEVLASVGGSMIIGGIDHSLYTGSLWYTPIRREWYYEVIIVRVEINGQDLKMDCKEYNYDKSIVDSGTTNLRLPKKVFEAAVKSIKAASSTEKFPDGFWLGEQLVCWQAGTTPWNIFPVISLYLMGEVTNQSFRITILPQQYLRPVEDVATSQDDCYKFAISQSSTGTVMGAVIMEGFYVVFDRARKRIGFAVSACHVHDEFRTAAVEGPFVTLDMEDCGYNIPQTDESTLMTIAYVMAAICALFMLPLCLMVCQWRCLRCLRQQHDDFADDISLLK
UniProt P56818, residues 46-501: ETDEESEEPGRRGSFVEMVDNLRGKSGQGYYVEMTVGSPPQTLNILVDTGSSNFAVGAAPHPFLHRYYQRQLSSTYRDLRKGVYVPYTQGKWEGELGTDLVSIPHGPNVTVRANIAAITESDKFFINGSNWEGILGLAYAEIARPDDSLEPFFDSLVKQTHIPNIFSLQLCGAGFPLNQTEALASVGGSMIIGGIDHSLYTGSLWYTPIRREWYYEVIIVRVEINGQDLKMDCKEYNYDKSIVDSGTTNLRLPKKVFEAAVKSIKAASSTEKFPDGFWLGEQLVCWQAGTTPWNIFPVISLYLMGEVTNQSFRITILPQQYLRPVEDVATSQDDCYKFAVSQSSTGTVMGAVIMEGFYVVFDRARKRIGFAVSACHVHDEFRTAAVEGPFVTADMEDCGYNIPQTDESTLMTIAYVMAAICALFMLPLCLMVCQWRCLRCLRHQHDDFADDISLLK

In PMC5251330 one finds binding data, which are given here for two molecules.

These are yes or no findings as the source states them, for the method shown. Binding seen in cells or lysates may run through a third protein. Some results given as binding are weak or reduced against the parent protein; the word gives no strength. For part of these data: Tags and fused reporters may be left off the sequences shown.

B1: GFP-SNX4 (human sorting nexin-4 tagged with green fluorescent protein at its N-terminus) (protein, UniProt O95219-1 1-450)
chain: MEQAPPDPERQLQPAPLEPLGSPDAGLGAAVGKEAEGAGEESSGVDTMTHNNFWLKKIEISVSEAEKRTGRNAMNMQETYTAYLIETRSVEHTDGQSVLTDSLWRRYSEFELLRSYLLVYYPHIVVPPLPEKRAEFVWHKLSADNMDPDFVERRRIGLENFLLRIASHPILCRDKIFYLFLTQEGNWKETVNETGFQLKADSRLKALNATFRVKNPDKRFTDLKHYSDELQSVISHLLRVRARVADRLYGVYKVHGNYGRVFSEWSAIEKEMGDGLQSAGHHMDVYASSIDDILEDEEHYADQLKEYLFYAEALRAVCRKHELMQYDLEMAAQDLASKKQQCEELVTGTVRTFSLKGMTTKLFGQETPEQREARIKVLEEQINEGEQQLKSKNLEGREFVKNAWADIERFKEQKNRDLKEALISYAVMQISMCKKGIQVWTNAKECFSKM
Regarding B1, the binding entry in assay [1] and in assay [2] was “binds” in each case.

B2: endogenous sorting nexin-4 (SNX4) of mouse brain (protein, UniProt Q91YJ2 1-450)
chain: MEQAPPDPEKLLQPGPLEPLGGPGAVLEAAVGEENEGTREDGSGVDTMTGNNFWLKKIEISVSEAEKRTGRNAVNMQETYTAYLIETRSVEHADGQSVLTDSLWRRYSEFELLRNYLLVYYPHVVVPPLPEKRAEFVWHKLSADNMDPDFVERRRVGLENFLLRVASHPVLCRDKIFYSFLTQEGNWKETVNETGFQLKADSRLKALNATFRVKNPDKRFTELRHYSDELQSVISHLLRVRARVADRLYGVYKVHGNYGRVFSEWSAIEKEMGDGLQSAGHHMDVYASSIDDILEDEEHYADQLKEYLFYAEALRAVCRKHELMQYDLETAAQDLAAKKQQCEELATGTVRTFSLKGMTTKLFGQETPEQREARIKVLEEQINEGEQQLKSKNLEGREFVKNAWADIERFKEQKNRDLKEALISYAVMQISMCKKGIQVWTNAKECFSKM
As for B2, the binding result in assay [3] is recorded as “binds”.
